Test results: PMC9681084, “MYB44-ENAP1/2 restricts HDT4 to regulate drought tolerance in Arabidopsis” (PLOS Genetics, 2022)

Target: MYB44 N-terminus (Arabidopsis)
Assay: two-hybrid; AD (pEXPAD502) and BD (pDBLeu) vector pairs co-transformed to yeast strain AH109; growth on SD/-Trp-Leu-His with 3'AT

B1: MBP-ENAP1 (natural protein, Arabidopsis, UniProt Q8VZI9 1-249, looked up)
chain: METTPETQSKTHRLPAGREDWWSEDATATLIEAWGDRYVNLNRGNLRQNDWKEVADAVNSSHGNGRPKTDVQCKNRIDTLKKKYKTEKAKPLSNWCFFDRLDFLIGPVMKKSSGAVVKSALMNPNLNPTGSKSTGSSLDDDDDDDDDDEEDDDDAGDWGFVVRKHRKVEDVDSSEGSAFRELARSILKLGEAFERIEGKKQQMMIELEKQRMEVAKELELQRMNMLMEMQLELEKSKLGKRRAASGKKL
notes: ENAP1, Arabidopsis, AT3G11100; the CDS ligated to pVP13 (His tag removed); source: E. coli, purified (Amylose resin)
With B1 the binding was “binds”.

No constants are given. Whether binding was seen depends on the method and setting. A result given as binding can be weak or reduced; the word gives no strength. Where a sequence is shown, tags or fusion partners need not be part of it.
